Measured values reported in patent US20250312338A1, “TREATMENT OF NEUROLOGICAL DISORDERS” (Praxis Precision Medicines, Inc., priority 2022, published 2025).
“Also recorded” adds a separate entry of the source. At least one compound was matched to its structure with a doubt left.

Chains of the proteins cited; added tags and fusions are not shown.
UniProt Q9UQD0, whole entry: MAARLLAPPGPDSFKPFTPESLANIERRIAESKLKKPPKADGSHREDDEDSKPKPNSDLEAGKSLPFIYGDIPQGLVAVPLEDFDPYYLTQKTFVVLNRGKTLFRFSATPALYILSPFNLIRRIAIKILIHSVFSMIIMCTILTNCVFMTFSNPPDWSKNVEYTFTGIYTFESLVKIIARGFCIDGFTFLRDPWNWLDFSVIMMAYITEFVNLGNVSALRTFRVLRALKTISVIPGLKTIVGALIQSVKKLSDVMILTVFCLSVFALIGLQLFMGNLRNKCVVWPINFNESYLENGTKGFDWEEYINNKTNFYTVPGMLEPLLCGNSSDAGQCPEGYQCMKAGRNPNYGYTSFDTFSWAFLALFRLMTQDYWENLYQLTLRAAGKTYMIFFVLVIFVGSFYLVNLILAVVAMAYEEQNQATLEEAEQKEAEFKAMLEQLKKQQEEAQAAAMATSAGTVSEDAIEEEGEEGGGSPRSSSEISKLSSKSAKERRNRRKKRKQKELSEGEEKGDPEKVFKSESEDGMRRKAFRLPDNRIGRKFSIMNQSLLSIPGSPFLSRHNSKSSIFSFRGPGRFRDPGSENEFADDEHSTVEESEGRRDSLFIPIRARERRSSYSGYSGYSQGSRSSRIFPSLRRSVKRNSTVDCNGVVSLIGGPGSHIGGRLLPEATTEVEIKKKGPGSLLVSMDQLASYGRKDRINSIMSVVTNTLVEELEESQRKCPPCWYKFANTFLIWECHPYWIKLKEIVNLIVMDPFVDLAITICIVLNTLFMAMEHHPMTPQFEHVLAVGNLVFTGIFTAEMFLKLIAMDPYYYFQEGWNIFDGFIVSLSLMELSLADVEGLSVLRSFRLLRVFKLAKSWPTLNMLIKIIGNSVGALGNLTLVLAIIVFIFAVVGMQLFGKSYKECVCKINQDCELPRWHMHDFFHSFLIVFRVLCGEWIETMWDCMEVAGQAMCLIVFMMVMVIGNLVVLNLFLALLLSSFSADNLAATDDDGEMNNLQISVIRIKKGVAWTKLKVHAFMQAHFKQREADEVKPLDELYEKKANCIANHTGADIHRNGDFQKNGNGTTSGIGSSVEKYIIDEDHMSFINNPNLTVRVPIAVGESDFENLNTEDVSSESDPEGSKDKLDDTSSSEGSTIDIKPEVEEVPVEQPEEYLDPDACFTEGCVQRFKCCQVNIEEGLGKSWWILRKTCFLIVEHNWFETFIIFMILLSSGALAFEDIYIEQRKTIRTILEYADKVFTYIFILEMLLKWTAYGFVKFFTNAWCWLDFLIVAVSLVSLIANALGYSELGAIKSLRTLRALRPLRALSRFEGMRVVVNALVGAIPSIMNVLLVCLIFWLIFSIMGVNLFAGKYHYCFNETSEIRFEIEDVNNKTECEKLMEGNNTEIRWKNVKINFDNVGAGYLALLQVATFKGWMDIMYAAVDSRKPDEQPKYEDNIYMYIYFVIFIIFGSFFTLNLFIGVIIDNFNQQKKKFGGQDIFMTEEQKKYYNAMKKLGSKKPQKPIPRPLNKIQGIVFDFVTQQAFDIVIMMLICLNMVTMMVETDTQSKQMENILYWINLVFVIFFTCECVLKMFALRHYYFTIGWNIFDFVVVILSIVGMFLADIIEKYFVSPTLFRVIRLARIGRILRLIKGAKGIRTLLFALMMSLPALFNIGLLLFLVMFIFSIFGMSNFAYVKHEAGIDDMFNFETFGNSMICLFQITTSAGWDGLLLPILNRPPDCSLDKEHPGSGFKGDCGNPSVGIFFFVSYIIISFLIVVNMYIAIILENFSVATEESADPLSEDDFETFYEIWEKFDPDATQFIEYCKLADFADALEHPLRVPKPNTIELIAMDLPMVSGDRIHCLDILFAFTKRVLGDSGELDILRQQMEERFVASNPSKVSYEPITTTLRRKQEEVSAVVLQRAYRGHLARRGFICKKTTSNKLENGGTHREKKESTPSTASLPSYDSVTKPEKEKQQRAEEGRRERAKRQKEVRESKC

Key:
Scn2a^Q54 mice = assay: Seizure frequency in Scn2a^Q54 mouse model of elevated persistent sodium current; assay type: in vivo
hNaV1.6 = target: T1, hNaV1.6 (Homo sapiens, UniProt Q9UQD0); assay: hNaV1.6 steady-state inactivation and activation curves (V1/2 shift); assay type: cell-based; settings: DMSO control -2.6 mV
T1 construct: HEK-293 cell lines stably expressing either human NaV1.6 (NP_055006); expressed in transfected cells

Kcnq2 K556E mice = assay: PTZ induced seizure, Kcnq2 K556E mice; assay type: in vivo, mouse; settings: PTZ 100 mg/kg s.c.; Compound 1 p.o. 60 min before; 10 mg/kg in FIG. 7A
healthy participants [1] = assay: Phase 1 28-day trial, pharmacodynamics (qEEG, ASSR); assay type: in vivo, human; settings: Part A
Kcnc1 R320H mice = assay: PTZ induced seizure, Kcnc1 R320H mice; assay type: in vivo, mouse; settings: PTZ 100 mg/kg s.c.; Compound 1 p.o. 60 min before; 10 mg/kg in FIG. 7B
[2] = test system: MES-induced seizures in male CD-1 mice; assay: Maximal electroshock seizure (MES) test; assay type: in vivo, mouse
Description: Food and water were available ad libitum.
VPA was prepared in saline (Vehicle 1). All solutions were protected from light. All compounds and vehicles were dosed at 10 ml/kg.
The MES test was carried out over two days with 6 of 12 mice from each treatment group being tested on each day. Mice were brought to the test room at least one hour before the start of the experiment.
A Grass S88x (Grass Technologies of Astro-Med, Inc., West Warwick, RI) Stimulus Isolation Unit (A385, WPI Inc., USA) was set to deliver a 50 mA square-wave stimulus, with a 0.8 second duration, a pulse width of 10 msec, and a frequency of 50 Hz. A pair of custom stainless steel electrodes were soaked in 0.2% Agar, and then the subject received bilateral transauricular stimulation through ear-clip electrodes. During the stimulation, mice were manually restrained. They were then released into the observation cage for convulsion observation for 60 seconds immediately after stimulation. Each mouse was observed continuously by individuals blinded to treatment conditions and results were recorded.
Anti-seizure assessment endpoints were: (1) latency of hindlimb tonic flexion; (2) latency of hindlimb tonic extension; (3) total #hindlimb tonic flexions; (4) total #hindlimb tonic extensions; (5) latency to death; and (6) mortality rate
From these fitted curves, ED50 and EC50 values were calculated.

CA1 pyramidal neurons = assay: Intrinsic excitability assay (evoked action potentials), brain slice whole-cell current clamp; assay type: cell-based, mouse
healthy participants [3] = assay: Phase 1 single/multiple ascending dose trial, EEG pharmacodynamics (ASSR, qEEG); assay type: in vivo, human; settings: any dose level

## CCOC(F)(F)c1nnc2cnc(-c3cnc(OCC(F)(F)F)c(F)c3)cn12 [Compound 1]
Scn2a^Q54 mice; 10 mg/kg
  seizures after dosing: no mice showing any seizures
Scn2a^Q54 mice; 1, 3 and 10 mg/kg p.o.
  seizure frequency compared to pre-treatment baseline: significant reduction
Scn2a^Q54 mice; Q54 mutation
  protection from spontaneous seizures, Scn2a DEE mouse model (FIG. 14A): completely block seizures
hNaV1.6; 0.3 μmol/L
  shift in V1/2 of the steady-state inactivation curve: −6.2 mV
hNaV1.6; 1 μmol/L
  shift in V1/2 of the steady-state inactivation curve: −11.7 mV
Kcnq2 K556E mice
  efficacy in KCNQ2 K556E PTZ seizure model (protection from hindlimb extension): highly efficacious; also recorded: robust anticonvulsant activity
Healthy participants [1]
  qEEG (Delta and Theta power) and ASSR (PLF and Evoked Power), placebo vs Compound 1: Statistically significant differences
Kcnc1 R320H mice
  efficacy in KCNC1 R320H PTZ seizure model (protection from hindlimb extension): highly efficacious; also recorded: robust anticonvulsant activity
[2]; 3 mg/kg p.o., 30 min before MES
  latency to seizures following bilateral transauricular stimulation: significantly increased
[2]; 10 mg/kg
  mice protected from MES-induced tonic hindlimb seizures: 11 of 12
[2]; 10 mg/kg po
  maximal MES protection relative to positive control VPA (400 mg/kg ip): equivalent; also recorded: comparable
CA1 pyramidal neurons; 0.3 μmol/L Compound 1, 45 μmol/L CBZ, +200 pA current injection
  AP amplitude: without compromising
CA1 pyramidal neurons; Compound 1 at 0.3 and 3 μM, slices from wildtype mice
  number of action potentials generated / action potential firing frequency vs baseline: significantly reduced
CA1 pyramidal neurons; at peak INa VDB IC50 equivalents: 0.3 μmol/L Compound 1, 45 μmol/L CBZ
  intrinsic excitability as number of evoked APs: significantly reduced
Healthy participants [3]
  ASSR-based absolute evoked gamma power vs placebo: No statistically significant differences
